# PubChem BioAssay AID1159584 | Peter MacCallum Cancer Centre – 2016
# Screen: 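Genes whose loss is lethal only together with E-cadherin loss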 (primary screen)
# System: human MCF10A breast epithelial cells, parental and CDH1-null
# Knock-down reagent: siRNA against human genes
# Read-out: 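ATP luminescence (CellTiter-Glo) viability per line relative to mean mock wells over all plates, and the ratio of CDH1-null to parental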
# Direction: CDH1-null / parental viability ratio: higher = CDH1-null cells survive relatively better than parental; CDH1-null viability vs mock: higher = more viable CDH1-null cells
# In all, the deposit lists about 18,000 reagents; below is a random part of them. Further read-outs or replicates are left out here. No sequences are given here. Not stated in the record: the amount of reagent, the time to read-out.
gene knocked down,CDH1-null / parental viability ratio,CDH1-null viability vs mock (fraction of mock)
"ZNF826P (zinc finger protein 826, pseudogene)",1.11,0.84
TMEM54 (transmembrane protein 54),1.4,0.74
DUSP10 (dual specificity phosphatase 10),1.24,0.82
SLC22A4,0.82,0.86
HYDIN (HYDIN axonemal central pair apparatus protein),1.24,0.52
NUCLEOLIN (nucleolin multifunctional protein),1.39,0.78
NFAM1 (NFAT activating protein with ITAM motif 1),1.12,1.01
OR5AR1 (olfactory receptor family 5 subfamily AR member 1),1.15,0.69
ADAMTS7 (ADAM metallopeptidase with thrombospondin type 1 motif 7),1.25,0.95
SPMIP5 (sperm microtubule inner protein 5),0.76,0.74
ZNF556 (zinc finger protein 556),0.94,0.66
FLII (FLII actin remodeling protein),0.87,0.62
PRRG1 (proline rich and Gla domain 1),0.84,0.74
POMP (proteasome maturation protein),0.95,0.61
TM4SF18 (transmembrane 4 L six family member 18),0.96,0.43
OR51S1 (olfactory receptor family 51 subfamily S member 1),0.82,0.7
TECPR1 (tectonin beta-propeller repeat containing 1),0.98,0.58
DEFB128 (defensin beta 128),1.01,0.81
TRPM8,1.11,0.91
BICC1 (BicC family RNA binding protein 1),0.95,0.57
MAP2K7 (mitogen-activated protein kinase kinase 7),0.89,0.59
"SPINT4 (serine peptidase inhibitor, Kunitz type 4)",0.93,0.68
EXTL1 (exostosin like glycosyltransferase 1),0.95,0.84
"PIN4 (peptidylprolyl cis/trans isomerase, NIMA-interacting 4)",1.06,1.14
GJC1 (gap junction protein gamma 1),1.16,1.23
HACD2 (3-hydroxyacyl-CoA dehydratase 2),1.28,0.87
MPEG1 (macrophage expressed 1),1.08,0.83
SMCO1 (single-pass membrane protein with coiled-coil domains 1),0.98,1.01
HAPSTR1 (HUWE1 associated protein modifying stress responses),1.13,0.79
CBX4 (chromobox 4),1,0.5
EMC10 (ER membrane protein complex subunit 10),1.11,0.69
CGRRF1 (cell growth regulator with ring finger domain 1),0.79,0.62
SUV39H2 (SUV39H2 histone lysine methyltransferase),0.82,0.58
CHMP1B (charged multivesicular body protein 1B),0.89,0.55
SIRT2 (sirtuin 2),0.81,0.7
ARNT2 (aryl hydrocarbon receptor nuclear translocator 2),1.19,1.02
SLC38A9,1.15,1.05
STOM (stomatin),0.74,0.58
OMP (olfactory marker protein),1.34,1.1
ROBO4 (roundabout guidance receptor 4),1.54,0.88
ATP2B1 (ATPase plasma membrane Ca2+ transporting 1),1.05,1.02
TPM2 (tropomyosin 2),1.22,1.07
PHKA2 (phosphorylase kinase regulatory subunit alpha 2),0.95,0.7
NT5DC3 (5'-nucleotidase domain containing 3),1.04,0.82
MX2 (MX dynamin like GTPase 2),1.09,0.38
CDK11B (cyclin dependent kinase 11B),1.09,0.74
NTRK3 (neurotrophic receptor tyrosine kinase 3),0.97,0.9
PEX19 (peroxisomal biogenesis factor 19),0.88,0.42
KRT81 (keratin 81),1.11,0.6
"CNP (2',3'-cyclic nucleotide 3' phosphodiesterase)",0.84,0.64
ACP3 (acid phosphatase 3),1.31,0.84
HSF1 (heat shock transcription factor 1),0.98,0.88
NIPBL (NIPBL cohesin loading factor),0.92,0.48
PAQR9 (progestin and adipoQ receptor family member 9),0.75,0.36
INO80D (INO80 complex subunit D),0.94,1.02
SPATA31H1 (SPATA31 subfamily H member 1),0.9,0.35
NCKAP5 (NCK associated protein 5),1.04,0.55
DOCK3 (dedicator of cytokinesis 3),1.22,1.27
SYMPK (symplekin scaffold protein),1.25,0.91
RAG2 (recombination activating 2),0.98,0.78
UBXN4 (UBX domain protein 4),1.2,0.96
PCGF6 (polycomb group ring finger 6),0.95,0.76
FOXR1 (forkhead box R1),0.97,0.72
ABHD15 (abhydrolase domain containing 15),0.85,0.5
MAP3K3 (mitogen-activated protein kinase kinase kinase 3),0.82,0.72
TMEM169 (transmembrane protein 169),1.11,1.15
AP1M2 (adaptor related protein complex 1 subunit mu 2),1.06,1
VPS4A (vacuolar protein sorting 4 homolog A),0.67,0.48
TBCB (tubulin folding cofactor B),1.01,0.85
PCDHB9 (protocadherin beta 9),0.61,0.51
OR4F16 (olfactory receptor family 4 subfamily F member 16),1.34,1.07
ASL (argininosuccinate lyase),1.01,0.88
WRAP53 (WD repeat containing antisense to TP53),0.73,0.82
MVB12B (multivesicular body subunit 12B),0.84,0.62
F5 (coagulation factor V),1,0.86
IL10RA (interleukin 10 receptor subunit alpha),0.99,1.1
PSG6 (pregnancy specific beta-1-glycoprotein 6),1.33,1.04
"NUDC (nuclear distribution C, dynein complex regulator)",0.87,0.86
NCBP1 (nuclear cap binding protein subunit 1),1.06,0.52
CIAPIN1 (cytokine induced apoptosis inhibitor 1),0.93,0.57
RPA2 (replication protein A2),1.26,0.48
DIDO1 (death inducer-obliterator 1),0.94,0.66
SLC10A6,1.02,0.98
MZB1 (marginal zone B and B1 cell specific protein),1,0.6
SRR (serine racemase),0.89,0.78
PALD1 (phosphatase domain containing paladin 1),1.15,0.94
ARGLU1 (arginine and glutamate rich 1),0.84,0.74

Records listed so far whose gene name begins with D or d (4):
gene knocked down,CDH1-null / parental viability ratio,CDH1-null viability vs mock (fraction of mock)
DUSP10 (dual specificity phosphatase 10),1.24,0.82
DEFB128 (defensin beta 128),1.01,0.81
DOCK3 (dedicator of cytokinesis 3),1.22,1.27
DIDO1 (death inducer-obliterator 1),0.94,0.66
